Test results published in the supplement of paper PMC12067093, “Discovery and optimisation of a covalent ligand for TRIM25 and its application to targeted protein ubiquitination” (Chemical Science, 2025).
Some of the results follow.

The chains behind the UniProt entries cited, without tags or fusion partners. Where a name states a change or a piece, a line headed by the entry shows the natural chain unless it says otherwise.
UniProt P08651, whole entry, looked up: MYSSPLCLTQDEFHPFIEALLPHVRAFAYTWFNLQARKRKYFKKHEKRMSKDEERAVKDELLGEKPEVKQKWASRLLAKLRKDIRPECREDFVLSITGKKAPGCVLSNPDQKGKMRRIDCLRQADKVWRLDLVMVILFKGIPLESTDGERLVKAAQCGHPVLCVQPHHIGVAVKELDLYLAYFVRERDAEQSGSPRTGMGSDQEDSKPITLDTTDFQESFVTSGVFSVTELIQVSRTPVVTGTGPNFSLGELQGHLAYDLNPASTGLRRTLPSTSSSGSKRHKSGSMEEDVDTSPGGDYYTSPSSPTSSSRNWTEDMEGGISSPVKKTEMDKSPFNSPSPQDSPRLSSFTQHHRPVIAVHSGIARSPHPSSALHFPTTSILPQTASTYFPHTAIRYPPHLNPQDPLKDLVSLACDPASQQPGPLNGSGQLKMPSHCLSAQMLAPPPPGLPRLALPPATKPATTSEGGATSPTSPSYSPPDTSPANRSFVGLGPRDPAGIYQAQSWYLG
UniProt O00221: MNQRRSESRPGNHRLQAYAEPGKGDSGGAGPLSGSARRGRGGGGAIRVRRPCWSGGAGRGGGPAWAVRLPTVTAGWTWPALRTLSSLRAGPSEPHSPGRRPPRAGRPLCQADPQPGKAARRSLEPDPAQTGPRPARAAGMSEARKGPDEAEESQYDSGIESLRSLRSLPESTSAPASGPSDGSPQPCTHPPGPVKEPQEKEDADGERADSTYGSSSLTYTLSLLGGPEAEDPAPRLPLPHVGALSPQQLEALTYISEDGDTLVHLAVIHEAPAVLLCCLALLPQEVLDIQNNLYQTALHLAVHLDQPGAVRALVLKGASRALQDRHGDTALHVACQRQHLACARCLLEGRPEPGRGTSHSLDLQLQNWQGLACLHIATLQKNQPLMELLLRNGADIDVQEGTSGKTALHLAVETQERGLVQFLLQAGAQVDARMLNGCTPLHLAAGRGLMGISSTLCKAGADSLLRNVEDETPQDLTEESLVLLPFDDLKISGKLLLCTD
UniProt Q9Y2I1: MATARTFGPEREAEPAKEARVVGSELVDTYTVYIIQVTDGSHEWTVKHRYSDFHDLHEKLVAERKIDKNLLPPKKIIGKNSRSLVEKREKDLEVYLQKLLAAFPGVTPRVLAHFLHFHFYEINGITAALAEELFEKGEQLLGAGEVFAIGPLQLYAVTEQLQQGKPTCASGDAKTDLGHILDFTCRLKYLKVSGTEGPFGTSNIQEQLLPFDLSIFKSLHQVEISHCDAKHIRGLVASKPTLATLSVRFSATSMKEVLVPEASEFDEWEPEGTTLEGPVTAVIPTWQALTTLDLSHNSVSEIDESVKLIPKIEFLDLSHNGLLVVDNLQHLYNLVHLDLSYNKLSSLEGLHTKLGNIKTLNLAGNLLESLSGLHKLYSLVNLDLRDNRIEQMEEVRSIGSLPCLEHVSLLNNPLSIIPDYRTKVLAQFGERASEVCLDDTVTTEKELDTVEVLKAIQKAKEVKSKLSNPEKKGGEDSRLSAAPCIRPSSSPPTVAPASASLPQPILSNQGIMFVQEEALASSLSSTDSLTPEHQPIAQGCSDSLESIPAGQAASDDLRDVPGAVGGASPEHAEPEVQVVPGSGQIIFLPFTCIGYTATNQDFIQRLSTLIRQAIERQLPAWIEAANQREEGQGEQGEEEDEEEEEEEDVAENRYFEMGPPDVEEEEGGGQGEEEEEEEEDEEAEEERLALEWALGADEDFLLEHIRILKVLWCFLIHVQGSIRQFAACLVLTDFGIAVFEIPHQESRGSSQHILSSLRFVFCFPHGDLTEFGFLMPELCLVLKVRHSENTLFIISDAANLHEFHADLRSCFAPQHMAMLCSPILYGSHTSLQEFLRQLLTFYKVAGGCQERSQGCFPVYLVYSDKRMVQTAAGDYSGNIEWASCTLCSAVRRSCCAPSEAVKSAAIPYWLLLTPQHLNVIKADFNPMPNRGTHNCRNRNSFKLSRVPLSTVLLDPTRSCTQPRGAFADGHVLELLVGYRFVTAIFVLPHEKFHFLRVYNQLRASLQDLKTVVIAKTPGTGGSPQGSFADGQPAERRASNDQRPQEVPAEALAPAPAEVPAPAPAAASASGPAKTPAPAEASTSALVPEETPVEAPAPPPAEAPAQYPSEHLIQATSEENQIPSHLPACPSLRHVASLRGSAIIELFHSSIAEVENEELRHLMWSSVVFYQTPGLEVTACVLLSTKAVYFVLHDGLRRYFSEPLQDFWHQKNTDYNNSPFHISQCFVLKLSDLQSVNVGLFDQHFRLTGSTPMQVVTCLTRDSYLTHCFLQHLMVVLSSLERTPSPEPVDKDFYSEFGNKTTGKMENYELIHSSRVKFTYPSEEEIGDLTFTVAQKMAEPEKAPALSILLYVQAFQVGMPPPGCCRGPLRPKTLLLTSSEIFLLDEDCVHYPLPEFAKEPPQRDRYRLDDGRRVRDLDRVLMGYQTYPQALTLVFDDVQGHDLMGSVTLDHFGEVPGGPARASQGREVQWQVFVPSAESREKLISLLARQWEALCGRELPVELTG
UniProt O75323: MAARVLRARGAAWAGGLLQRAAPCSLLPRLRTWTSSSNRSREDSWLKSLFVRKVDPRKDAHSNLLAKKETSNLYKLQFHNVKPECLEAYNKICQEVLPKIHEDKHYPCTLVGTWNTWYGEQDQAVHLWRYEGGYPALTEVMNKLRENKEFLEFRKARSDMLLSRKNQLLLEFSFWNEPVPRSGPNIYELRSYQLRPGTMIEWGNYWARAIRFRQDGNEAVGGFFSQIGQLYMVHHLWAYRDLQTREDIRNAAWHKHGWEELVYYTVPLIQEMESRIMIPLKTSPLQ
UniProt O75376, whole entry, looked up: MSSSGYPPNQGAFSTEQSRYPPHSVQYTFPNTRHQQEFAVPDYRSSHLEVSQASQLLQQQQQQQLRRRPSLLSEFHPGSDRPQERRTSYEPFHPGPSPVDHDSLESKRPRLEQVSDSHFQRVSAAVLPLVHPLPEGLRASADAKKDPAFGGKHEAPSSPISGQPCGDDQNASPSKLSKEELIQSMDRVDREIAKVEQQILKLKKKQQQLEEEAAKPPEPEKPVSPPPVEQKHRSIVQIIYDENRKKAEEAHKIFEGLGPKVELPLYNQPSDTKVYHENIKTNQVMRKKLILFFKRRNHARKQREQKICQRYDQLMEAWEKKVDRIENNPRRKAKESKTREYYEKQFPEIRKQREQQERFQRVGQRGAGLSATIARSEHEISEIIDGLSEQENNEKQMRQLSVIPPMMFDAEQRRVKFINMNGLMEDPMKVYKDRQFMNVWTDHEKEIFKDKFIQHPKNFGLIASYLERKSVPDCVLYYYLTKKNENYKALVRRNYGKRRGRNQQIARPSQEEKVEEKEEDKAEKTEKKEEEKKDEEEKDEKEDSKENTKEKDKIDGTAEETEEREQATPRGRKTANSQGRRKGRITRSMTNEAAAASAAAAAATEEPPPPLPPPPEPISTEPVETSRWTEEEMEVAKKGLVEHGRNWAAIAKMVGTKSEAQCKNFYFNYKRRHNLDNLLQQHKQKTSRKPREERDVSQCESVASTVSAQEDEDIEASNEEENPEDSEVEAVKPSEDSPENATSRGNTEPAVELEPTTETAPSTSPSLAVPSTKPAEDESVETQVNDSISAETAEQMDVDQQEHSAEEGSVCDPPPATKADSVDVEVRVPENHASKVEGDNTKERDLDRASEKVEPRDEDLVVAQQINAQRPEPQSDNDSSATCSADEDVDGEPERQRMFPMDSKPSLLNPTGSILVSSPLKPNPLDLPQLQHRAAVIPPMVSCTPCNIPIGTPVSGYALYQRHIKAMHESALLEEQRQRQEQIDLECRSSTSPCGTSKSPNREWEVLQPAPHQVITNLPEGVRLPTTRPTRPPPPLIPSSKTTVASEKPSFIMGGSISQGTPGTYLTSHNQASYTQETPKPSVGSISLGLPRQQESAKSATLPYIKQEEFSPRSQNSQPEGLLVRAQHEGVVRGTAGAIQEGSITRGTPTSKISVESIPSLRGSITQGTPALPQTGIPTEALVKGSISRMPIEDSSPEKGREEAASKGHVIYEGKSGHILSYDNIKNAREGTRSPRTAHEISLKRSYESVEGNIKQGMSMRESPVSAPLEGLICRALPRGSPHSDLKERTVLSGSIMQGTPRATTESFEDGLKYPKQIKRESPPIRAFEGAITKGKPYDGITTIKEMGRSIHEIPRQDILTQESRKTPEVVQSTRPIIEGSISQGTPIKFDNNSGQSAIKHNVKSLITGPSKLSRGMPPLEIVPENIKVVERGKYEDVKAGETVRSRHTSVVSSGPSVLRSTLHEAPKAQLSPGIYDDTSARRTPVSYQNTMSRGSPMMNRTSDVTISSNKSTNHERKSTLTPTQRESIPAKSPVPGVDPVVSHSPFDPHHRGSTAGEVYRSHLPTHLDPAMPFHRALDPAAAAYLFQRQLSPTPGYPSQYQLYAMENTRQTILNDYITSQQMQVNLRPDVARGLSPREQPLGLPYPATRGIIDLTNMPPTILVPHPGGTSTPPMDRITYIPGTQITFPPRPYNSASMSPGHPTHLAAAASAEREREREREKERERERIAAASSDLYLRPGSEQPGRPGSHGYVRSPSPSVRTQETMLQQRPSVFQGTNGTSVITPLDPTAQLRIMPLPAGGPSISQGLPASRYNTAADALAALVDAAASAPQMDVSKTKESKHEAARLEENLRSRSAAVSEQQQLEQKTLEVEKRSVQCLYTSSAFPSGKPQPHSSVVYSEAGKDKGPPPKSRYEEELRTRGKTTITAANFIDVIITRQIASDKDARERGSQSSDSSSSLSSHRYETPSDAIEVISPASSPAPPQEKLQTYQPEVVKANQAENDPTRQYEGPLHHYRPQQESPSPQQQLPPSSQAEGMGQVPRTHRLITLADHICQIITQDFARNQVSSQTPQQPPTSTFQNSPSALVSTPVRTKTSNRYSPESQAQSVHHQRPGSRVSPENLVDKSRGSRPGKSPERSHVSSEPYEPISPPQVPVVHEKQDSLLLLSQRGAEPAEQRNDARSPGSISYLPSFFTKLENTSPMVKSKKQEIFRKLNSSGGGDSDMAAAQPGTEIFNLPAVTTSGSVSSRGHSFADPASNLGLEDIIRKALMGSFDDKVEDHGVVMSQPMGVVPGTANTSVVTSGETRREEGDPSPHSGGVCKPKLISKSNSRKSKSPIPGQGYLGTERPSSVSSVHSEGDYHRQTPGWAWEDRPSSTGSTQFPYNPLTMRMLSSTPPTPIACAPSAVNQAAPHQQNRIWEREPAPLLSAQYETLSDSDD
UniProt O14777: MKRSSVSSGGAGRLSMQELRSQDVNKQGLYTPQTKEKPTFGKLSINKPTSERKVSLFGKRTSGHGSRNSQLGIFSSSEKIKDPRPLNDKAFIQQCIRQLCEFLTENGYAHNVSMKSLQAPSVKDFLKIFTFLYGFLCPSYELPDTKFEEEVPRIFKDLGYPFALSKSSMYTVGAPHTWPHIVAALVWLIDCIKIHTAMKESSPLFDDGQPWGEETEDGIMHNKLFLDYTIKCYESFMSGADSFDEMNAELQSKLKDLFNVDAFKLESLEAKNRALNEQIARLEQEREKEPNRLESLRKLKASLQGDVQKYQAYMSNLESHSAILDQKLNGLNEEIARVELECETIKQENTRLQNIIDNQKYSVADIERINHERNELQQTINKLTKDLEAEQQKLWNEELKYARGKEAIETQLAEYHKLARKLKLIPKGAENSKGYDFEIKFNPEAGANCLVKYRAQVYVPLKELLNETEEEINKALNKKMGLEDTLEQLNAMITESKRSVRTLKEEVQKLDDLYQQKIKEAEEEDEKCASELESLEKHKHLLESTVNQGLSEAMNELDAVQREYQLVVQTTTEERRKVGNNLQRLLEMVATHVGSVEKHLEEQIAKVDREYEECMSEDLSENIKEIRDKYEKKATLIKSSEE
UniProt Q9UFN0: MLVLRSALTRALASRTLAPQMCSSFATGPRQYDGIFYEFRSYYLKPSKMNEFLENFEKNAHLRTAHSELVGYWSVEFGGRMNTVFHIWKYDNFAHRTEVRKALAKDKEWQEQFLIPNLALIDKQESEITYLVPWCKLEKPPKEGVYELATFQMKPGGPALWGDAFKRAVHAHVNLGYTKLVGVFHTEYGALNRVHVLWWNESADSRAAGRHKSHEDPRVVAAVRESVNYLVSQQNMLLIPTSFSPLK
UniProt Q86X76: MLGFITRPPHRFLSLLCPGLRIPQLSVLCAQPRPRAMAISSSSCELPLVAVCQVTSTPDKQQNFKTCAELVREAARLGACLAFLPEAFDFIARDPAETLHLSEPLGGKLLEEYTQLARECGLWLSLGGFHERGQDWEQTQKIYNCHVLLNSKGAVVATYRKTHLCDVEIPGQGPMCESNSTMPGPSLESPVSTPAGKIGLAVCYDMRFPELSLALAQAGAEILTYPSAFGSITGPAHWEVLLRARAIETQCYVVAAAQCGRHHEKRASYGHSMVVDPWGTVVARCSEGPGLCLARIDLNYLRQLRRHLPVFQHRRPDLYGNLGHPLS

Compound: CC1Cc2ccccc2N1C(=O)C1CCCN(C1)C(=O)CCl (mixture of isomers) [TRIM25 ligand 11 (diastereomer mixture)]
Experiment: probe-labelled cysteine peptide fold change vs DMSO (competition) (log2 fold change); higher = less target engagement (more negative = stronger competition)
Conditions: THP-1, incubation time: 4 h
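Further: competitive chemoproteomic profiling in live THP-1 cells with an iodoacetamide desthiobiotin (IA-DTB) probe, comparing probe-labelled peptide intensities in compound-treated cells against DMSO-treated controls.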

Target | probe-labelled cysteine peptide fold change (10 µM) | probe-labelled cysteine peptide fold change (50 µM)
NFIC_P08651_104_KAPGCVLSNPDQK (UniProt P08651) | -0.0478 | -0.0863
NFKBIE_O00221_342_QHLACAR (UniProt O00221) | -0.0336 | 0.104
NISCH_Q9Y2I1_436_ASEVCLDDTVTTEK (UniProt Q9Y2I1) | -0.0835 | -0.0789
NFKBIE_O00221_345_CLLEGRPEPGR (UniProt O00221) | -0.0407 | 0.153
NIPSNAP2_O75323_85_LQFHNVKPECLEAYNK (UniProt O75323) | -0.125 | -0.0971
NCOR1_O75376_987_QEQIDLECR (UniProt O75376) | -0.022 | 0.0386
NDC80_O14777_342_VELECETIK (UniProt O14777) | 0.165 | 0.339
NIPSNAP3A_Q9UFN0_135_QESEITYLVPWCK (UniProt Q9UFN0) | 0.0894 | -0.0359
NF1_P21359_509_LLLCNPR (UniProt P21359) | 0.119 | 0.0231
NFIC_P08651_157_AAQCGHPVLCVQPHHIGVAVK (UniProt P08651) | -0.0931 | -0.0631
NFKBIB_Q15653_135_GHTALHLACR (UniProt Q15653) | 0.0835 | 0.216
NIT1_Q86X76_145_IYNCHVLLNSK (UniProt Q86X76) | 0.0692 | 0.166
NDRG1_Q92597_394_SMEVSC (UniProt Q92597) | -0.204 | -0.335
NIT1_Q86X76_285+292_CSEGPGLCLAR (UniProt Q86X76) | -0.0588 | -0.0713
NEU1_Q99519_287_NQNNYHCHCR (UniProt Q99519) | 0.196 | 0.174

Looked up one by one from the entries so far:
Target | probe-labelled cysteine peptide fold change (10 µM) | probe-labelled cysteine peptide fold change (50 µM)
NDC80_O14777_342_VELECETIK (UniProt O14777) | 0.165 | 0.339
NIT1_Q86X76_145_IYNCHVLLNSK (UniProt Q86X76) | 0.0692 | 0.166
